Data reported in PMC4098744, “Systematic family‐wide analysis of sodium bicarbonate cotransporter NBCn1/SLC4A7 interactions with PDZ scaffold proteins” (Physiological Reports, 2014).

T1: MALS‐1 (PDZ domain on the array) (UniProt O14910)
T1 sequence: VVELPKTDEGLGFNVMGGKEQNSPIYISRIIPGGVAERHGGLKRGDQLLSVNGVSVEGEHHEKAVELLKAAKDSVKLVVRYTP

T2: syntrophin γ2 (PDZ domain on the array) (UniProt Q9NY99)
T2 sequence: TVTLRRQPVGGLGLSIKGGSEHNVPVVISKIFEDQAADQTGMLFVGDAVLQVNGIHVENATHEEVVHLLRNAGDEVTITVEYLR

T3: syntrophin α1 (PDZ domain on the array) (UniProt Q13424)
T3 sequence: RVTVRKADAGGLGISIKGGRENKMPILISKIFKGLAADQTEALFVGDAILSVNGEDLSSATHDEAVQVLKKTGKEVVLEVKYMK

T4: PDZK1 (PDZ domain 1) (UniProt Q5T2W1)
T4 sequence: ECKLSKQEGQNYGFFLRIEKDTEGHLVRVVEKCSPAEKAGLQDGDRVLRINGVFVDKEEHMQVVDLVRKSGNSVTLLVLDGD

T5: NHERF‐1 (PDZ domain 1) (UniProt O14745)
T5 sequence: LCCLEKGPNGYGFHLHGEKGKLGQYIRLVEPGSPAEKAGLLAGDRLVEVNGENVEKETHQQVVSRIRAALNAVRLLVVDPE

T6: syntrophin β2 (PDZ domain on the array) (UniProt Q13425)
T6 sequence: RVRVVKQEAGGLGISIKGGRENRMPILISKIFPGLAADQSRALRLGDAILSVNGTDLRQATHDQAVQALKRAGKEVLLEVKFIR

T7: MUPP1 (PDZ domain 7) (UniProt O75970)
T7 sequence: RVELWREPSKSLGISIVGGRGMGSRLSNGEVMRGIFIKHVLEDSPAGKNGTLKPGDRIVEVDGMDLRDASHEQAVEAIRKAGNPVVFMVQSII

B1: GST/NBCn1 fusion protein containing the C‐terminal 26 amino acids of rat NBCn1 (domain or fragment, UniProt Q9R1N3-2 1229-1254, looked up)
chain: PEKPVSVTINFEDEPSKKYMDAETSL
notes: NBCn1 (SLC4A7), rat, the C-terminal 26 amino acids; also called C‐terminal domain of NBCn1 fused to GST; source: prepared as described previously (Lee et al. 2012)

Key:
Experiment in all cases: peptide or protein array; PDZ filter overlay: 96 Class I PDZ domains spotted on a nylon membrane; overlaid with 100 nmol/L GST/NBCn1 (or GST only) in blot buffer (50 mmol/L NaCl, 2% dry milk, 0.1% Tween 20, 10 mmol/L HEPES; pH 7.4) for 1 h at room temperature; detected with HRP-conjugated anti-GST antibody; done three times; both purified
[1] = molecular target: T1, MALS‐1 (PDZ domain on the array)
[2] = molecular target: T2, syntrophin γ2 (PDZ domain on the array)
[3] = molecular target: T3, syntrophin α1 (PDZ domain on the array)
PDZK1 (PDZ domain 1) = molecular target: T4, PDZK1 (PDZ domain 1)
NHERF‐1 (PDZ domain 1) = molecular target: T5, NHERF‐1 (PDZ domain 1)
[4] = molecular target: T6, syntrophin β2 (PDZ domain on the array)
MUPP1 (PDZ domain 7) = molecular target: T7, MUPP1 (PDZ domain 7)
MAGI‐3 (PDZ domain 5) = molecular target: MAGI‐3 (PDZ domain 5)
[5] = molecular target: densin‐180 (PDZ domain on the array)

| Molecule | binding [1] | binding [2] | binding [3] | binding (PDZK1 (PDZ domain 1)) | binding (NHERF‐1 (PDZ domain 1)) | binding [4] | binding (MUPP1 (PDZ domain 7)) | binding (MAGI‐3 (PDZ domain 5)) | binding [5] |
| --- | --- | --- | --- | --- | --- | --- | --- | --- | --- |
| GST only | no binding | no binding | no binding | no binding | no binding | no binding | no binding |  |  |
| B1 |  |  |  |  |  |  |  | binds | binds weakly |

No constants are given. Whether binding was seen depends on the method and setting. For part of these data: A result given as binding can be weak or reduced; the word gives no strength. For part of these data: Where a sequence is shown, tags or fusion partners need not be part of it.
